Data taken from PMC11106742 (ACS Chemical Biology, 2024).

Assay: general procedure: Fmoc solid-phase peptide synthesis; 2-Chlorotrityl ProTide (CEM, 0.45 mmol/g); Fmoc-L-Ser(2-CTC)-OAll support for amide and dicarba isosteres; DIC (5 equiv) and Oxyma (10 equiv) in DMF; HATU/DIPEA for isosteres
Conditions: whole synthesis, Shimadzu Nexera HPLC, diode array detector, C8 reversed-phase analytical column, scale of the general procedure 0.1 mmol

Final HPLC purity, >95%:
PEPTIDE1{[NMeLeu].[aIle].S.[aThr].[bAla].[NDodGly]}$PEPTIDE1,PEPTIDE1,1:R1-6:R2$$$V2.0, PEPTIDE1{[NMeLeu].[aIle].S.[aThr].[bAla].[NEtPEG3Gly]}$PEPTIDE1,PEPTIDE1,1:R1-6:R2$$$V2.0, PEPTIDE1{[NMeLeu].[aIle].S.[aThr].[bAla].[NOctAla]}$PEPTIDE1,PEPTIDE1,1:R1-6:R2$$$V2.0, PEPTIDE1{[NMeLeu].[aIle].S.[aThr].[bAla].[NOctGly]}$PEPTIDE1,PEPTIDE1,1:R1-6:R2$$$V2.0

Strings that start with PEPTIDE1 are HELM notation: dots part the residues, brackets hold end groups and non-standard residues. The same purity stands for every peptide and may come from a single statement.
